Drawing on PMC10415143, this text covers binding for three substances.

Amino acid sequences for entries named in this document (tags omitted). A change or cut given only in a name is not applied to a line headed by its entry.
UniProt Q389P3: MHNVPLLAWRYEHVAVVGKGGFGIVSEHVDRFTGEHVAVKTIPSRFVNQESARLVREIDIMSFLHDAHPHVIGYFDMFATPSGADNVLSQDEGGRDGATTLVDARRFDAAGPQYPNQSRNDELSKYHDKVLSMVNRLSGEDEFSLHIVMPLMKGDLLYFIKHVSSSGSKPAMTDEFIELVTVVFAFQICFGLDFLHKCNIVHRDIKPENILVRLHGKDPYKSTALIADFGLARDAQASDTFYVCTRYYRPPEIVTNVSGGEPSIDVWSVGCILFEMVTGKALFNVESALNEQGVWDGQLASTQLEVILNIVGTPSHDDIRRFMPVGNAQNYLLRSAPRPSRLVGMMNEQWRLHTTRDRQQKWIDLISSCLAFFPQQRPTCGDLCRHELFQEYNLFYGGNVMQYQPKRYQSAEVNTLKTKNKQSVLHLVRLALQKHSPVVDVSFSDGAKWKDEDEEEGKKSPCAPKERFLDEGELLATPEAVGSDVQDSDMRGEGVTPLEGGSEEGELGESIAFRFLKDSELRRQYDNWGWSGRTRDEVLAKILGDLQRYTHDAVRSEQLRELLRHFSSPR
UniProt Q57XA6: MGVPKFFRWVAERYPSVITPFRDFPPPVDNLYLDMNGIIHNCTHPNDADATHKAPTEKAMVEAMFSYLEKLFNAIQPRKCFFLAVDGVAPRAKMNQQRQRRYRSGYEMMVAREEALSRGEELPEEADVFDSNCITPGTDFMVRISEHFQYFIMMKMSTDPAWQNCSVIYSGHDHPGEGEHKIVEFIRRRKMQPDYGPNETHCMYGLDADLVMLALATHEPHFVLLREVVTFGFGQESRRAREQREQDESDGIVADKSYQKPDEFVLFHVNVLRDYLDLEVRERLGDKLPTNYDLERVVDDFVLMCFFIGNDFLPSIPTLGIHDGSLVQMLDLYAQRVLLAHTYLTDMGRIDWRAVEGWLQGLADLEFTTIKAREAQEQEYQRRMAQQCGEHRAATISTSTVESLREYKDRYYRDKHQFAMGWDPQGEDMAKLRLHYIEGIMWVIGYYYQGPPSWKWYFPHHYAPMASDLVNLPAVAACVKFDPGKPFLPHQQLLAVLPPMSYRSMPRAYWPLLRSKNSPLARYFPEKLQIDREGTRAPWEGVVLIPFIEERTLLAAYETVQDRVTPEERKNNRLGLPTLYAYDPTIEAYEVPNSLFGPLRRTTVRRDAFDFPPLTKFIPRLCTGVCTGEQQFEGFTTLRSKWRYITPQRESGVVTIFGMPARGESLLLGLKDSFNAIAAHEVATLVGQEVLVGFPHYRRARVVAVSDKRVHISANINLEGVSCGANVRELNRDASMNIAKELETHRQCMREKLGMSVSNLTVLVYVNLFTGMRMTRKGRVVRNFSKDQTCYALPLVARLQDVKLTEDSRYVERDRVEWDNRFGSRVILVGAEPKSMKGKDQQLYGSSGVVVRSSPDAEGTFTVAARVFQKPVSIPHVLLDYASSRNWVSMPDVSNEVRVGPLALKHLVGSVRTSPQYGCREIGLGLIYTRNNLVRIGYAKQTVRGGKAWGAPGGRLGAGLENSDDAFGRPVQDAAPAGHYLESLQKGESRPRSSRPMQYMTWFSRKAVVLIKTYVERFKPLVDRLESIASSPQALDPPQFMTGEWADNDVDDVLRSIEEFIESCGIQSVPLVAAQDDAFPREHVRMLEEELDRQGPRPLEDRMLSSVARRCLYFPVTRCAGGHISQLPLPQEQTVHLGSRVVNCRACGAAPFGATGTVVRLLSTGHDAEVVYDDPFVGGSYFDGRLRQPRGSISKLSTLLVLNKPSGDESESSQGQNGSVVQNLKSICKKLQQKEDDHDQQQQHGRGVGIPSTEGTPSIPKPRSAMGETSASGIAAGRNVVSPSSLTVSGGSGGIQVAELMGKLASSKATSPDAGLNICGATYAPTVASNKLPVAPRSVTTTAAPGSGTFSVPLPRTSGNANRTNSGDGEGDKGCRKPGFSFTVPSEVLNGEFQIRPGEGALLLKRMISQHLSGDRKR
UniProt Q583T9: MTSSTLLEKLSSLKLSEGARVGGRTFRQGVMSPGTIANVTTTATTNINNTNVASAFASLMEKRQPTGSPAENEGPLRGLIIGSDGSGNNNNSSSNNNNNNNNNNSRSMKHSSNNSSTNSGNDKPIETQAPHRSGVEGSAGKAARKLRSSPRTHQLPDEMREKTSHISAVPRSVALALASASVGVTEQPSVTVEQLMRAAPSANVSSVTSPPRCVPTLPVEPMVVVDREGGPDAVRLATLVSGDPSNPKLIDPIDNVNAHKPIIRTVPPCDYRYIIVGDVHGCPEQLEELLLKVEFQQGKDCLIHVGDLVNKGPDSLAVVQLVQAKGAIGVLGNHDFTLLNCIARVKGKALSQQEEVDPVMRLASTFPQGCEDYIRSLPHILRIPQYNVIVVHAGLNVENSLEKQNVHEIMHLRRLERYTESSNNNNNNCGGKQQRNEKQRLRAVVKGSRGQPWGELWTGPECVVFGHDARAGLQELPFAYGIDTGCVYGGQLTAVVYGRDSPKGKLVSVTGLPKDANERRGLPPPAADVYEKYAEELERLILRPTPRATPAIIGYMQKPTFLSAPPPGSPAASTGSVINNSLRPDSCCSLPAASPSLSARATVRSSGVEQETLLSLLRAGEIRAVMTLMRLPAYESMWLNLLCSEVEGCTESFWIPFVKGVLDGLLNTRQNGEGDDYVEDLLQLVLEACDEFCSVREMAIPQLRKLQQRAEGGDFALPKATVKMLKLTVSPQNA
UniProt Q57XZ3: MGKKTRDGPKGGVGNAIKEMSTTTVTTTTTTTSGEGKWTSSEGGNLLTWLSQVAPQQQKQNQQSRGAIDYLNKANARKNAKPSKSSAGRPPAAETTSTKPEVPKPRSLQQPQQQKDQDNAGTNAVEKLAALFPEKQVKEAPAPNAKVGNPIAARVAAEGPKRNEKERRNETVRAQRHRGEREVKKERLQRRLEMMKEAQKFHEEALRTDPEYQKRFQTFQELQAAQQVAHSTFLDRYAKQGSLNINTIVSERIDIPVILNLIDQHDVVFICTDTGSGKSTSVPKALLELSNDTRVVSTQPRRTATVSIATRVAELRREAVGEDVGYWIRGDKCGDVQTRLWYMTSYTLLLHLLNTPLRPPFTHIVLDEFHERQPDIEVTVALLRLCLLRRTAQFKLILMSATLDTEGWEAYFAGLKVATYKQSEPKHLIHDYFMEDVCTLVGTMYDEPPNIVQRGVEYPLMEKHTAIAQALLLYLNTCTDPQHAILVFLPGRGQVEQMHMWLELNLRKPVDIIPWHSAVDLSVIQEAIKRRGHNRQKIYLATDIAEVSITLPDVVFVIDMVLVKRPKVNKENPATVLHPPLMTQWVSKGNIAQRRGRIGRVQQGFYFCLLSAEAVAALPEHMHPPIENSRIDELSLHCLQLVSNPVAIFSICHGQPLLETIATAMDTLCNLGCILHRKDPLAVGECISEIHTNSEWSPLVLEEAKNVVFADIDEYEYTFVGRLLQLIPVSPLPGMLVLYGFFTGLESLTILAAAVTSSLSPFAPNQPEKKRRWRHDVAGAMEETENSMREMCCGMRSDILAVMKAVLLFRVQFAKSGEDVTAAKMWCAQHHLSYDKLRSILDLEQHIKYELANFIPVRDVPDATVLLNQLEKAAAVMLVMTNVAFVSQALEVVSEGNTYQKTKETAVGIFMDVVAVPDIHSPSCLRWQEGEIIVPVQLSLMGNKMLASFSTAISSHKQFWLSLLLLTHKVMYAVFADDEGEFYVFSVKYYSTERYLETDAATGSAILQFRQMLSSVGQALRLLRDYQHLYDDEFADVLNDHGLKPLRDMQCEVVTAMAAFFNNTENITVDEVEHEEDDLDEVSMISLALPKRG
UniProt Q57UM8: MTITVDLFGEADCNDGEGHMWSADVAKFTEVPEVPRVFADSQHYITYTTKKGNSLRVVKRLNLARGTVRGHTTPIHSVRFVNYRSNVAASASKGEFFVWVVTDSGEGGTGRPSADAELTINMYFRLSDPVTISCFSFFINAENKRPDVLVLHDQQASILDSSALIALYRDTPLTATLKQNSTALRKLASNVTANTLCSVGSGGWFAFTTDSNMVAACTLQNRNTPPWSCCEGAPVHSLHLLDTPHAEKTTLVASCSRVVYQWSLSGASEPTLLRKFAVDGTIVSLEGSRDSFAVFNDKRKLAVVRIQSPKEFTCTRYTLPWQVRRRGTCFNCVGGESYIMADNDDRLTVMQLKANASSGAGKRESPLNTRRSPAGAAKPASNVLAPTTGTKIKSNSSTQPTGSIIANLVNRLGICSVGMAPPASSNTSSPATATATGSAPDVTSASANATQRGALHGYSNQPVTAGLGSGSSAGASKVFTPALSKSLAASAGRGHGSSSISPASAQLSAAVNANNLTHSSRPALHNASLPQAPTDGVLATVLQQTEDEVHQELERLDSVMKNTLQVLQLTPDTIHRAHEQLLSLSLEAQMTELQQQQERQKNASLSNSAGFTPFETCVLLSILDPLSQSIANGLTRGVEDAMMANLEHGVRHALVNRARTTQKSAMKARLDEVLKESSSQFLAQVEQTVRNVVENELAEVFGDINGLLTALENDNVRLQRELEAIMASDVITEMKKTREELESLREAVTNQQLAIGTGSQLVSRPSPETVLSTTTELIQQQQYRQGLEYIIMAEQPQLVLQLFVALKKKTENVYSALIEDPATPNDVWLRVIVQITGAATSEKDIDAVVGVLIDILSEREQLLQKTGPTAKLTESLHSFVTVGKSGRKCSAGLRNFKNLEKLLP

Results are given in words; binding and its absence hold for the method and conditions named. In cells and extracts the contact can be indirect. A yes stands for co-enrichment or nearness to the bait. Other partners may have been found.

In assay [1] the target is CMGC-type protein kinase Tb927.10.10870 as C-terminal TurboID-HA fusion (T. brucei) (UniProt Q389P3). Description: proximity labelling; CMGC kinase Tb927.10.10870-TurboID-HA from its endogenous locus in T. brucei; streptavidin beads, LC-MSMS; compared with parental cells and the eYFP control.
Assay [2] deals with XRNA fused to a C-terminal mNeonGreen tag (T. brucei) (UniProt Q57XA6). Description: affinity purification with mass spectrometry; T. brucei procyclic cells cryomilled; 20 mM HEPES pH 7.4, 250 mM NaCl, 0.5% CHAPS; capture on mNeonGreen Trap (XRNA-mNeonGreen) or GFP Trap (ALPH1 eYFP fusions) magnetic agarose; LC-MSMS; wild type cells as control.
In assay [3] the target is ALPH1 as N-terminal eYFP fusion (T. brucei) (UniProt Q583T9). The assay is described as above.
Assay [4] concerns the target ALPH1 as C-terminal eYFP fusion (T. brucei) (UniProt Q583T9). The description is as above.

Consider “ALPH1, endogenous (from UniProt Q583T9) (enzyme)”, for which the binding entry in assay [1] and in assay [2] was “binds” throughout.
Regarding “RNA helicase Tb927.4.3890, endogenous (from UniProt Q57XZ3) (enzyme)”, in assay [2], the binding result is on record as “binds”.
Regarding “Tc40 antigen-like protein Tb927.7.3980, endogenous (from UniProt Q57UM8)”, the binding entry in assay [1], in assay [3] and in assay [4] was “binds” each time.
